Source: patent publication EP4725507A1, “POLYPEPTIDE CONJUGATE, PHARMACEUTICAL COMPOSITION CONTAINING POLYPEPTIDE CONJUGATE AND USE THEREOF” (Nanjing Anji Biotechnology Co., Ltd., priority 2023, dated 2025)

Tested on: A549 (non-small cell lung cancer cells)
Assay: Tumor cell proliferation inhibition (CCK8)
Format: cell-based
Conditions: Homo sapiens, 72 h
Description: Human highly metastatic hepatocellular carcinoma cells HCCLM3, human highly metastatic gastric cancer cells MKN45, human gastric cancer cells BGC-823 and MGC-803, non-small cell lung cancer cells A549, human pancreatic cancer cells ASPC-1, human colon cancer cells LoVo, human ovarian cancer cells A2780, human cervical cancer cells SiHa, human malignant melanoma cells SK-mel-2 and M14, human osteosarcoma cells Saos-2, human bladder transitional cell carcinoma cells T24, human brain glioblastoma cells U87-MG, human lymphoma cells Raji, and human epidermal cancer cells A431 were selected for the experiment. Among them, HCCLM3 cells, MKN45 cells, BGC-823 cells, MGC-803 cells, A431 cells and A549 cells were provided by Nanjing Anji Biotechnology Co., Ltd., and the other cells were provided by Nanjing Ouji Pharmaceutical Technology Service Co., Ltd.
The aforementioned tumor cells were preserved in a medium containing 10% fetal bovine serum and 1% penicillin-streptomycin, and incubated at 37°C with 5% CO2 and 95% humidity. […]
Tumor cells in the logarithmic growth phase were taken for the experiment. The cells were digested, counted, and prepared into a cell suspension with a concentration of 1×10^5 cells/mL, which was then inoculated into a 96-well plate (100 µL per well). […] After incubation, the absorbance was measured at 450 nm, and the tumor cell proliferation inhibition rate was calculated. […]

CC(=O)O[C@H]1C(=O)[C@@]2(C)[C@H]([C@H](OC(=O)c3ccccc3)[C@]3(O)C[C@H](OC(=O)[C@H](O)[C@@H](NC(=O)c4ccccc4)c4ccccc4)C(C)=C1C3(C)C)[C@]1(OC(C)=O)CO[C@@H]1C[C@@H]2O [PTX, paclitaxel]
IC50: 541 nM
